These are yes or no findings as the source states them, for the method shown. Some binding calls cover weakened binding; strength is not graded here.
Assays:
[1] = target: T1, NPDC-1 (human) (UniProt Q9NQX5); test: Cell-Int (cell-cell conjugates counted by flow cytometry); two batches of 293-F cells, each transfected with one membrane protein and GFP or RFP, mixed in FreeStyle 293 Expression Medium, 1-2 h at 25°C (Juno/Izumo1 also at 4°C and 37°C and from 10 min to 3 h); percent GFP+ RFP+ double-positive events
T1 sequence: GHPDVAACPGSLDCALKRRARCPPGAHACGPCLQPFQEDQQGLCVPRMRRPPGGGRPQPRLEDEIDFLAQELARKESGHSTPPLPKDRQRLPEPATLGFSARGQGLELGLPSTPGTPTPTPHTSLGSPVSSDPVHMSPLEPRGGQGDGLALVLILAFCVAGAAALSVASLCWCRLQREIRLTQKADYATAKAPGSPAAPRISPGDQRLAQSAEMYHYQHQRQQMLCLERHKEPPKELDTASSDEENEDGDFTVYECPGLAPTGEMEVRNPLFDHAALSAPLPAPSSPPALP

The chains behind the UniProt entries cited, without tags or fusion partners. Residues count along the entry.
UniProt Q5KU26: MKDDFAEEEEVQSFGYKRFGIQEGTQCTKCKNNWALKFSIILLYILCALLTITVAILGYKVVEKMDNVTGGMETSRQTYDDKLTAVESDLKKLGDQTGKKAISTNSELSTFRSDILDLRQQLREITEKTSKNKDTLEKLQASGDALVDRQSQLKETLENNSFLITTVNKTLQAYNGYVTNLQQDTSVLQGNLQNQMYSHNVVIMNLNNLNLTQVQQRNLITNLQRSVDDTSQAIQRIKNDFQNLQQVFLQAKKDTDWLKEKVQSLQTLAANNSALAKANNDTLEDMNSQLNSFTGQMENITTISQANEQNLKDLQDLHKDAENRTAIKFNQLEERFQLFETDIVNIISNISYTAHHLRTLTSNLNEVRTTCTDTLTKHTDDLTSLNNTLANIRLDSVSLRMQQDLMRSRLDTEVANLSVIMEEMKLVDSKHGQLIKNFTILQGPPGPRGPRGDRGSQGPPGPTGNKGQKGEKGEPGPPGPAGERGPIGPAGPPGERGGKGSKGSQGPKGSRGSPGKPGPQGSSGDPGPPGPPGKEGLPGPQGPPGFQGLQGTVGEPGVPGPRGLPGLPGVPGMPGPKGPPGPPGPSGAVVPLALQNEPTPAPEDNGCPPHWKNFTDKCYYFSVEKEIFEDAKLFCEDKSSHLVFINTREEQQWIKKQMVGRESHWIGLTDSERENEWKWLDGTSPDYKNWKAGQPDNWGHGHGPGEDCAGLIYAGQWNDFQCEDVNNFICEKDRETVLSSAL
UniProt Q9UKJ0, residues 20-227: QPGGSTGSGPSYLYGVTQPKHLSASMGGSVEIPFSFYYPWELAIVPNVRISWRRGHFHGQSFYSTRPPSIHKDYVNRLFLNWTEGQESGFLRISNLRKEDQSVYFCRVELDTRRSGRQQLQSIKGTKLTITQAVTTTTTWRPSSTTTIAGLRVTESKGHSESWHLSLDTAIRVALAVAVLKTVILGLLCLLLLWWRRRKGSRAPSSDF
UniProt Q9UKJ1, residues 20-303: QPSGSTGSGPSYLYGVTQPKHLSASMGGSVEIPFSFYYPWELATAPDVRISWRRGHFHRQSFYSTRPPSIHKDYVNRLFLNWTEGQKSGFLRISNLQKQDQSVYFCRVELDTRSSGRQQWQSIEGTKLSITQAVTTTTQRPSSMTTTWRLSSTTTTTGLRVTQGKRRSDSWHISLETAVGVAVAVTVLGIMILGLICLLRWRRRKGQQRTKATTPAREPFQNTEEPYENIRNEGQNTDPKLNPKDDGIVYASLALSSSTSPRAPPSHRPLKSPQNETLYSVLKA

[2] = target: COLEC12 (human) (UniProt Q5KU26); test: as above
[3] = target: T2, Izumo1 (mouse) (UniProt Q9D9J7); test: as above
T2 sequence: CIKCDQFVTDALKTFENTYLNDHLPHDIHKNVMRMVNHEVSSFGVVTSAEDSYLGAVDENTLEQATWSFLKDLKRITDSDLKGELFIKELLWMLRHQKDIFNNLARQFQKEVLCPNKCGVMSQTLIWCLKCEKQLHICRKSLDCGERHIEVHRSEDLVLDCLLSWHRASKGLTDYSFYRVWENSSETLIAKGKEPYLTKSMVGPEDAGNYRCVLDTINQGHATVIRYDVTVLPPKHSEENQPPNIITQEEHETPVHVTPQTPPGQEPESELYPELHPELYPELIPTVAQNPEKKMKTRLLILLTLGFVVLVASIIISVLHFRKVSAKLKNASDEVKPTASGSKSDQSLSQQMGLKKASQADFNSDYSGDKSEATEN

[4] = target: T3, MFSD2 (UniProt Q8NA29); test: Cell-Int (cell-cell conjugates counted by flow cytometry)
T3 sequence: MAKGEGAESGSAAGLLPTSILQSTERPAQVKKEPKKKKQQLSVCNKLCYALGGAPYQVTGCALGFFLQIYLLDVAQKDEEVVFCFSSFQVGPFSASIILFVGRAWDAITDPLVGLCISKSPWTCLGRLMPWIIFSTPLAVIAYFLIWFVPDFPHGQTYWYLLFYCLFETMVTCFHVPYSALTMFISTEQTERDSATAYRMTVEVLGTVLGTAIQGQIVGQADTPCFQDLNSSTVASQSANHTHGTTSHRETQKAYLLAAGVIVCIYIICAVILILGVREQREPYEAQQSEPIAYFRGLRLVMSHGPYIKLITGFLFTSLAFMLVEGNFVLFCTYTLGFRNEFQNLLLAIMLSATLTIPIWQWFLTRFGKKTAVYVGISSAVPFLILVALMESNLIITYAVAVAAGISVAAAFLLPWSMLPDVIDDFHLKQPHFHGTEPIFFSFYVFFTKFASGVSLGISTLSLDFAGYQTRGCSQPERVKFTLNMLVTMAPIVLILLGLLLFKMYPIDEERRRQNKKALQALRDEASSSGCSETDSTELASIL

[5] = target: T4, endogenous Ly-6E of 293T cells (human (endogenous in 293T)) (UniProt Q16553); test: as above
T4 sequence: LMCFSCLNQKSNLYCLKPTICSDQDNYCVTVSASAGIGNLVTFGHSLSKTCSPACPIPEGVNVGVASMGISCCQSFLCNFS

[6] = target: T5, Ly-6E (mouse) (mouse) (UniProt Q64253); test: as above
T5 sequence: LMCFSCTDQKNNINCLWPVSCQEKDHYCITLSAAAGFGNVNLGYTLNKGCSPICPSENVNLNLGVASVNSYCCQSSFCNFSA

[7] = target: T6, CD200R1L (human) (UniProt Q6Q8B3); test: Cell-Int (cell-cell conjugates counted by flow cytometry); two batches of 293-F cells, each transfected with one membrane protein and GFP or RFP, mixed in FreeStyle 293 Expression Medium, 1-2 h at 25°C (Juno/Izumo1 also at 4°C and 37°C and from 10 min to 3 h); percent GFP+ RFP+ double-positive events
T6 sequence: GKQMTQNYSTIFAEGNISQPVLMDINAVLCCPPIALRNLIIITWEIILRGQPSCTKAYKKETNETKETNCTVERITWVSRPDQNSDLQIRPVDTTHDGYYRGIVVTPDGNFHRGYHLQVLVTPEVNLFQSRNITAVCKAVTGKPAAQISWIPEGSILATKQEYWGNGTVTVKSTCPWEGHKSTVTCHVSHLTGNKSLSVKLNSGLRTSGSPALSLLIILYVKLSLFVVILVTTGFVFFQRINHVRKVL

[8] = target: T7, CD200R1 (human) (UniProt Q8TD46); test: as above
T7 sequence: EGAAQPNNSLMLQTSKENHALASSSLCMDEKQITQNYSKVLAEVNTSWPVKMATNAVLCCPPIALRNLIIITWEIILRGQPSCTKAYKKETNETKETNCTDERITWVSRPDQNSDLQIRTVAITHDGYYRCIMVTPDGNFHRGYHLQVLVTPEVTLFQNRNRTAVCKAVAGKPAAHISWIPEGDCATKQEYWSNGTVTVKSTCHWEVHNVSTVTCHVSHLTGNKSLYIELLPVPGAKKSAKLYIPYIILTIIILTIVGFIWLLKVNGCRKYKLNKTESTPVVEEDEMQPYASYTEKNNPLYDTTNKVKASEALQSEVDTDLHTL

With “PILRβ (from UniProt Q9UKJ0 20-227) (receptor)” the binding [1] was “no binding” and the binding [2] was “no binding”.

“PILRα (from UniProt Q9UKJ1 20-303) (receptor)” was tested, and the binding [1] was “binds” and the binding [2] was “binds”.

B1: Juno (protein, UniProt Q9EQF4 20-222)
chain: GDKLLSVCMNSKRHKQEPGPEDELYQECRPWEDNACCTRSTSWEAHLEEPLLFNFSMMHCGLLTPACRKHFIQAICFHECSPNLGPWIQPVVPNGQEEQRVWGVPLCQEDCEDWWRACHSSLTCKSNWLHGWDWSEEKKHCPAHEPCLPFSYHFPTPDDLCEKIWNNTFKASPERRNSGRCLQKWFEPTLSNPNVEVALHFAG
B1 was tested, and the binding [3] was “binds”.

B2: Syncytin-2 (protein, UniProt P60508 16-538)
chain: AYRHPDFPLLEKAQQLLQSTGSPYSTNCWLCTSSSTETPGTAYPASPREWTSIEAELHISYRWDPNLKGLMRPANSLLSTVKQDFPDIRQKPPIFGPIFTNINLMGIAPICVMAKRKNGTNVGTLPSTVCNVTFTVDSNQQTYQTYTHNQFRHQPRFPKPPNITFPQGTLLDKSSRFCQGRPSSCSTRNFWFRPADYNQCLQISNLSSTAEWVLLDQTRNSLFWENKTKGANQSQTPCVQVLAGMTIATSYLGISAVSEFFGTSLTPLFHFHISTCLKTQGAFYICGQSIHQCLPSNWTGTCTIGYVTPDIFIAPGNLSLPIPIYGNSPLPRVRRAIHFIPLLAGLGILAGTGTGIAGITKASLTYSQLSKEIANNIDTMAKALTTMQEQIDSLAAVVLQNRRGLDMLTAAQGGICLALDEKCCFWVNQSGKVQDNIRQLLNQASSLRERATQGWLNWEGTWKWFSWVLPLTGPLVSLLLLLLFGPCLLNLITQFVSSRLQAIKLQTNLSAGRHPRNIQESPF
For B2, the binding [4] was “binds”.

B3: Syncytin-A (protein, UniProt Q5G5D5 18-617)
chain: YSDSWMPLVNLTQHLLQEANSSFSSNCWVCLSIQTQRSLAMPAPLRTWTETPMKLRIMYSARTLSGPYPITDLERRLQNFQPLTPHSSFVNPDQRAIAFLQITSVTGILPILSRITSVRYPDDHVYESAQRPIWGSLSTQTILTSQAPLCISRFFKNSNHATFVGKLPASLCNHTFQLSPSANHQSIDLSSSYAFAPLMAMPGSKWRNPLRFSGPPSLNSGMPHYSCPIDDIHCHTYPTTPWRSCPSFPASTCYNLTLFEPDNSSHPITLSVDTTYFKIKLQGHKDPYPLFQYQPLMGAALSGQYSIWEYEPTVKKNGGITPNIFSHLVSLTYSFCLNSSGVFFLCGNSTYVCLPANWSGVCTLVFQYPDIELLPNNQTISVPLFATVPSSVPASRRKRALPLLPLLAGLGIASALGLGIAGITTSTVYFQQLSKALSDSLDEIATSIISLQDQIDSLAGVVLQNRRALDLIVAERGGTCLFLQEECCFYINQSGVVRHAARKLRERASELGTSSSSWIQWLGLGPWLPSWLTSLMAPILFILVLLVFRPCLLNCLTHSVSRRMSSFIHTTTEGHVDKILLLRESQYKRLPQEPPEEDAV
With B3 the binding [5] was “binds” and the binding [6] was “binds”.

B4: CD200 (ligand, UniProt P41217 31-278)
chain: QVQVVTQDEREQLYTPASLKCSLQNAQEALIVTWQKKKAVSPENMVTFSENHGVVIQPAYKDKINITQLGLQNSTITFWNITLEDEGCYMCLFNTFGFGKISGTACLTVYVQPIVSLHYKFSEDHLNITCSATARPAPMVFWKVPRSGIENSTVTLSHPNGTTSVTSILHIKDPKNQVGKEVICQVLHLGTVTDFKQTVNKGYWFSVPLLLSIVSLVILLVLISILLYWKRHRNQDRGELSQGVQKMT
B4 was tested, and the binding [7] was “no binding” and the binding [8] was “binds”.

Reference: article PMC11377309
